Measurements taken from doi:10.1101/2025.05.08.652952.
These are yes or no findings as the source states them, for the method shown. Binding seen in cells or lysates may run through a third protein. Some binding calls cover weakened binding; strength is not graded here. Sequences can lack the tags named with a protein.

The chains behind the UniProt entries cited, without tags or fusion partners. Residues count along the entry.
UniProt P33450, residues 4610-5147: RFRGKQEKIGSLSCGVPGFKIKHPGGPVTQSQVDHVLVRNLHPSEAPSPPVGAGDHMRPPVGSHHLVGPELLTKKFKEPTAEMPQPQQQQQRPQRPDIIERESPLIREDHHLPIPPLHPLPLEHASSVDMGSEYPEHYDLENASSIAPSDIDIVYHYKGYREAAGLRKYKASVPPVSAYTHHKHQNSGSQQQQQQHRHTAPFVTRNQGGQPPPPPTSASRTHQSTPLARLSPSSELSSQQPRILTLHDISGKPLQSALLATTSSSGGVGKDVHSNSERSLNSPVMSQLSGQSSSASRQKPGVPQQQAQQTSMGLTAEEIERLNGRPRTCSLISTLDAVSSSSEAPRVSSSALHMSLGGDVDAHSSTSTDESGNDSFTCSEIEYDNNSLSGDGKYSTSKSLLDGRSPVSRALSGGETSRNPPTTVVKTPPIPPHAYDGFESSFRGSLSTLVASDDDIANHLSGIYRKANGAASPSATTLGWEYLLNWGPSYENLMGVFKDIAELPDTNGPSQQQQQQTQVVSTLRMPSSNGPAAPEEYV

Molecular target: Fat intracellular domain, 3xFLAG-tagged (pAc-ftICD-3xFLAG) (Drosophila melanogaster) (UniProt P33450)
Assay: co-IP

B1: Yorkie, HA-tagged (pAc-yki-HA) (protein, UniProt Q45VV3 1-395)
chain: MLTTMSASSNTNSLIEKEIDDEDMLSPIKSNNLVVRVNQDTDDNLQALFDSVLNPGDAKRPLQLPLRMRKLPNSFFTPPAPSHSRANSADSTYDAGSQSSINIGNKASIVQQPDGQSPIAAIPQLQIQPSPQHSRLAIHHSRARSSPASLQQNYNVRARSDAAAANNPNANPSSQQQPAGPTFPENSAQEFPSGAPASSAIDLDAMNTCMSQDIPMSMQTVHKKQRSYDVISPIQLNRQLGALPPGWEQAKTNDGQIYYLNHTTKSTQWEDPRIQYRQQQQILMAERIKQNDVLQTTKQTTTSTIANNLGPLPDGWEQAVTESGDLYFINHIDRTTSWNDPRMQSGLSVLDCPDNLVSSLQIEDNLCSNLFNDAQAIVNPPSSHKPDDLEWYKIN
  binding: binds
